These results are taken from publication PMC13324726.

Protein sequences, listed by entry. Tags and fused reporters are not part of them. Lines headed by an entry give the natural chain unless they say otherwise; changes in a name come on top.
UniProt P61006: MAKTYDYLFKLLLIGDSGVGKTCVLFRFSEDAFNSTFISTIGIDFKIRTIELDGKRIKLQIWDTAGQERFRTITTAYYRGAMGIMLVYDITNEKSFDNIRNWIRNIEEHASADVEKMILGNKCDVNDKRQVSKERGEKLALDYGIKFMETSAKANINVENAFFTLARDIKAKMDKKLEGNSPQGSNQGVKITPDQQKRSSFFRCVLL
UniProt Q8IY33: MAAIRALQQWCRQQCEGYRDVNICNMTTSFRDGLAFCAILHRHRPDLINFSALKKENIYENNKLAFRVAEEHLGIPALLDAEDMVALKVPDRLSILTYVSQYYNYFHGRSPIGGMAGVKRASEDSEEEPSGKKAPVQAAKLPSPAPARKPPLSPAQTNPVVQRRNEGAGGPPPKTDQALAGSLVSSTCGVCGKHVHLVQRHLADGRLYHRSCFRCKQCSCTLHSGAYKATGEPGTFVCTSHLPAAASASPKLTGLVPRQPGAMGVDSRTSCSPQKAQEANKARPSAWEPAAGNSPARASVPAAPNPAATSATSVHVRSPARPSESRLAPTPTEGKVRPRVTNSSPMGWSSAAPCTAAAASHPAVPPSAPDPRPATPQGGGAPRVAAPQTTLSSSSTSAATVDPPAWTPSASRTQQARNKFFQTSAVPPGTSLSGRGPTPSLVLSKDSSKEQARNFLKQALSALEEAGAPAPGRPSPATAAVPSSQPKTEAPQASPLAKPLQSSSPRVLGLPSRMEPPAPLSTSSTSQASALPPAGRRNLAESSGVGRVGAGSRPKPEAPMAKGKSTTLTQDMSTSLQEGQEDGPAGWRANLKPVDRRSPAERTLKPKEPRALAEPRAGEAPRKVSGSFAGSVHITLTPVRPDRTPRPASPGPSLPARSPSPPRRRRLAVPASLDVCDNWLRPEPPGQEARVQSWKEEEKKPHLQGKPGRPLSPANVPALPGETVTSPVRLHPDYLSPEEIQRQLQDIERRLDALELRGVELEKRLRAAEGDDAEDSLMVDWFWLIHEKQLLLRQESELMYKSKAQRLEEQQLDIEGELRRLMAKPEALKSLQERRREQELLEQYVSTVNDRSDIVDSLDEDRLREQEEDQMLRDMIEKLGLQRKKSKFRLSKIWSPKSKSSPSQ
UniProt P55258: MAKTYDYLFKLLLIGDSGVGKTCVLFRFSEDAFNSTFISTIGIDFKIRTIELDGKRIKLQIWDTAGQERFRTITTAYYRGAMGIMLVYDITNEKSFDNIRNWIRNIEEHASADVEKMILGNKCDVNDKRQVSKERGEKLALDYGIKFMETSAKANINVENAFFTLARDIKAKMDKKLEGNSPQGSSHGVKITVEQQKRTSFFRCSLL
UniProt Q9UQN3: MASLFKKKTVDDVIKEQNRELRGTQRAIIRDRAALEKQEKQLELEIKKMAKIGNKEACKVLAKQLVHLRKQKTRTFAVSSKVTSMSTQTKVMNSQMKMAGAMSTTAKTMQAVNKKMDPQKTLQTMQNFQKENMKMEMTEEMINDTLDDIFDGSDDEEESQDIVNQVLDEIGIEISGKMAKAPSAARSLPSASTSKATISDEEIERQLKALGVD
UniProt Q96LT7: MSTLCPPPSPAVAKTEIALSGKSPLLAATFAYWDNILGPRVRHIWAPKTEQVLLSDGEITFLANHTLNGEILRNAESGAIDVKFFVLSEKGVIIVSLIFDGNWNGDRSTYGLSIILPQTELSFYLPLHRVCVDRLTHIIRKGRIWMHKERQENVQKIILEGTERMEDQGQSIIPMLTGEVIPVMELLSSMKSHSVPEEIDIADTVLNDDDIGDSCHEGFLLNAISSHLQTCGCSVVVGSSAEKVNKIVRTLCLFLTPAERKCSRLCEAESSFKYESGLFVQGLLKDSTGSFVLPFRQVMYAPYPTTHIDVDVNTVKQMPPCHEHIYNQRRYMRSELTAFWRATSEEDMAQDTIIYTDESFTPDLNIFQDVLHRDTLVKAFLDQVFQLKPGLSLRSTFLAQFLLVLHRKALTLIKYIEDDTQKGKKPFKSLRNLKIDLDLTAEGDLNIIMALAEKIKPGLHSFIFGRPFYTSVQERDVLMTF

Numbering of substitutions follows the chain as printed. Results are given in words; binding and its absence hold for the method and conditions named. Binding seen in cells or lysates may run through a third protein. Some results given as binding are weak or reduced against the parent protein; the word gives no strength. For some of these results: Tags and fused reporters may be left off the sequences shown.

For assay [1], the target named is GFP-RAB8A (wild-type) (human) (UniProt P61006). Put plainly: co-IP; GFP-Trap IP from 293T cells co-transfected with GFP-RAB8A and HA-MICALL2 or empty vector, after 1 mM LLOMe 30 min; blots for HA-MICALL2, GFP-RAB8A and CHMP2B.
In assay [2] the target is T1, C9orf72/SMCR8 complex (SMCR8-GFP and C9orf72-GFP co-expressed in BV2 cells) (mouse) (UniProt Q6DFW0+Q3UMB5).
T1 sequence 1: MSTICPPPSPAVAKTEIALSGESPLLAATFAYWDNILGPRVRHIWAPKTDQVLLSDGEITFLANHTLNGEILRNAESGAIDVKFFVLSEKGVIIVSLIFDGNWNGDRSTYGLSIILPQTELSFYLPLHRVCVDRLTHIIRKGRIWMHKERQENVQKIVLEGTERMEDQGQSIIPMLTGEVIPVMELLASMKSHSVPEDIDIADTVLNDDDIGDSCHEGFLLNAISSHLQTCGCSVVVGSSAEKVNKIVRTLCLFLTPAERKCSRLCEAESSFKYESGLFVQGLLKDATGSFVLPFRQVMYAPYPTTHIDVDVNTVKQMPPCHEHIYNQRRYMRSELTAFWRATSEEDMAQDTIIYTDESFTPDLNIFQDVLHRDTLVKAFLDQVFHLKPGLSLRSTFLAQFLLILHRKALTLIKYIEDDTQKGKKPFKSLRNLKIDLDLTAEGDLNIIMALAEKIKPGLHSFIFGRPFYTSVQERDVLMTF
T1 sequence 2: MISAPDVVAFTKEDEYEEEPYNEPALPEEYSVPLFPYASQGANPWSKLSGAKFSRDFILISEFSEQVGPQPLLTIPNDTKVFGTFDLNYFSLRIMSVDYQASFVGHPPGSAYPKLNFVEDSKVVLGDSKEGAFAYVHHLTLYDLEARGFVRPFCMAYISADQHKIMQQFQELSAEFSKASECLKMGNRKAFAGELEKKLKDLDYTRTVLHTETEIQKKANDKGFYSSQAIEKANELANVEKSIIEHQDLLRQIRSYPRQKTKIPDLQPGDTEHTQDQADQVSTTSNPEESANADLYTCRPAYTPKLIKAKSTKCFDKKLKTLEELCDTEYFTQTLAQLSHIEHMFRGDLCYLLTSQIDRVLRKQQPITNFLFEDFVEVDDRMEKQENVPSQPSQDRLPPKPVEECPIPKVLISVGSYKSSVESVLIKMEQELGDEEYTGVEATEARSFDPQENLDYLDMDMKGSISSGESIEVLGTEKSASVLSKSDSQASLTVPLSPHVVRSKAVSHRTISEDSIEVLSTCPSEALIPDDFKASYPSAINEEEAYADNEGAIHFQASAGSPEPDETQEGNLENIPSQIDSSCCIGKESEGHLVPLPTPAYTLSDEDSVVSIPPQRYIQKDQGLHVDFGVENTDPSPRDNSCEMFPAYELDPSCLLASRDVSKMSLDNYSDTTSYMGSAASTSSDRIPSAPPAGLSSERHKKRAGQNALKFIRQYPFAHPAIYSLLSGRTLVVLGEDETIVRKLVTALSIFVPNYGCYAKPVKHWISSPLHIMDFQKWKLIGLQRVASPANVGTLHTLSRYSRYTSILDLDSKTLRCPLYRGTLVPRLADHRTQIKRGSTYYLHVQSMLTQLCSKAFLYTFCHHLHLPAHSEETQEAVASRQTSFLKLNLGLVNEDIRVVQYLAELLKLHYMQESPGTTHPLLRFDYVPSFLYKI
Put plainly: co-IP; GFP-Trap beads overnight at 4 °C on lysates of BV2 cells co-expressing SMCR8-GFP and C9orf72-GFP, basal or 1 mM LLOMe 30 min; lysis buffer 20 mM Tris-HCl pH 7.4, 150 mM NaCl, 0.5% NP-40; blots for pT72-RAB8A and total RAB8A.

Assay [3] concerns the target GFP-RAB8A Q67L (GTP-bound form) (human) (UniProt P61006). The assay can be described thus: co-IP; GFP-Trap IP from HEK293T cells expressing GFP-tagged RAB8A variants (WT, Q67L, T22N), basal or 1 mM LLOMe 30 min; blots for endogenous SMCR8 and C9orf72.

For the molecule HA-MICALL2 (from UniProt Q8IY33 1-904), in assay [1], the binding result is recorded as “binds”.
Regarding “phosphorylated RAB8A (pT72-RAB8A), endogenous in BV2 cells (from UniProt P55258 1-207)”, in assay [2], the binding entry is “binds”.
Turning to “CHMP2B, endogenous in HEK293T cells (from UniProt Q9UQN3 1-213)”, the binding entry in assay [1] is “binds”.

B1: C9orf72/SMCR8 complex, endogenous in HEK293T cells (complex, UniProt Q96LT7 1-481; Q8TEV9 1-937)
chain 1: T1 sequence 1 with I4L, E22K, D50E, V158I, A188S, D198E, A287S, H386Q, I404V
chain 2: MISAPDVVAFTKEEEYEEEPYNEPALPEEYSVPLFPFASQGANPWSKLSGAKFSRDFILISEFSEQVGPQPLLTIPNDTKVFGTFDLNYFSLRIMSVDYQASFVGHPPGSAYPKLNFVEDSKVVLGDSKEGAFAYVHHLTLYDLEARGFVRPFCMAYISADQHKIMQQFQELSAEFSRASECLKTGNRKAFAGELEKKLKDLDYTRTVLHTETEIQKKANDKGFYSSQAIEKANELASVEKSIIEHQDLLKQIRSYPHRKLKGHDLCPGEMEHIQDQASQASTTSNPDESADTDLYTCRPAYTPKLIKAKSTKCFDKKLKTLEELCDTEYFTQTLAQLSHIEHMFRGDLCYLLTSQIDRALLKQQHITNFLFEDFVEVDDRMVEKQESIPSKPSQDRPPSSSLEECPIPKVLISVGSYKSSVESVLIKMEQELGDEEYKEVEVTELSSFDPQENLDYLDMDMKGSISSGESIEVLGTEKSTSVLSKSDSQASLTVPLSPQVVRSKAVSHRTISEDSIEVLSTCPSEALIPDDFKASYPSAINEEESYPDGNEGAIRFQASISPPELGETEEGSIENTPSQIDSSCCIGKESDGQLVLPSTPAHTHSDEDGVVSSPPQRHRQKDQGFRVDFSVENANPSSRDNSCEGFPAYELDPSHLLASRDISKTSLDNYSDTTSYVSSVASTSSDRIPSAYPAGLSSDRHKKRAGQNALKFIRQYPFAHPAIYSLLSGRTLVVLGEDEAIVRKLVTALAIFVPSYGCYAKPVKHWASSPLHIMDFQKWKLIGLQRVASPAGAGTLHALSRYSRYTSILDLDNKTLRCPLYRGTLVPRLADHRTQIKRGSTYYLHVQSMLTQLCSKAFLYTFCHHLHLPTHDKETEELVASRQMSFLKLTLGLVNEDVRVVQYLAELLKLHYMQESPGTSHPMLRFDYVPSFLYKI
Take B1: the binding entry in assay [3] is “binds”.
